{"source": "PubChem BioAssay AID1159584 (Peter MacCallum Cancer Centre, 2016)", "screen": "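Genes whose loss is lethal only together with E-cadherin loss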 (primary screen)", "cells": "human MCF10A breast epithelial cells, parental and CDH1-null", "reagents": "siRNA against human genes", "measurement": "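Cell viability by CellTiter-Glo ATP luminescence, each line scaled to the mean of mock wells across plates, then CDH1-null over parental ratio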", "scale": "CDH1-null / parental viability ratio: higher = CDH1-null cells survive relatively better than parental; CDH1-null viability vs mock: higher = more viable CDH1-null cells", "units": "CDH1-null viability vs mock in fraction of mock", "note": "Here is an unselected part of about 18,000 reagents. Not all columns of the deposit are shown. Reagent sequences are not shown. Not given: the amount of reagent, the time to read-out."}
{"Gene": "INPP1 (inositol polyphosphate-1-phosphatase)", "CDH1-null / parental viability ratio": 1.13, "CDH1-null viability vs mock": 0.88}
{"Gene": "VIPR1 (vasoactive intestinal peptide receptor 1)", "CDH1-null / parental viability ratio": 0.66, "CDH1-null viability vs mock": 0.46}
{"Gene": "PLN (phospholamban)", "CDH1-null / parental viability ratio": 0.95, "CDH1-null viability vs mock": 0.86}
{"Gene": "CTSZ (cathepsin Z)", "CDH1-null / parental viability ratio": 1.34, "CDH1-null viability vs mock": 0.86}
{"Gene": "INTS1 (integrator complex subunit 1)", "CDH1-null / parental viability ratio": 1.07, "CDH1-null viability vs mock": 0.48}
{"Gene": "RAMP2 (receptor activity modifying protein 2)", "CDH1-null / parental viability ratio": 0.91, "CDH1-null viability vs mock": 0.85}
{"Gene": "SMCO4 (single-pass membrane protein with coiled-coil domains 4)", "CDH1-null / parental viability ratio": 0.7, "CDH1-null viability vs mock": 0.38}
{"Gene": "PLEKHM1P1", "CDH1-null / parental viability ratio": 1.03, "CDH1-null viability vs mock": 0.74}
{"Gene": "CEBPA (CCAAT enhancer binding protein alpha)", "CDH1-null / parental viability ratio": 0.79, "CDH1-null viability vs mock": 0.57}
{"Gene": "PHETA1 (PH domain containing endocytic trafficking adaptor 1)", "CDH1-null / parental viability ratio": 0.82, "CDH1-null viability vs mock": 0.66}
{"Gene": "ZNF404 (zinc finger protein 404)", "CDH1-null / parental viability ratio": 0.78, "CDH1-null viability vs mock": 0.72}
{"Gene": "MORN4 (MORN repeat containing 4)", "CDH1-null / parental viability ratio": 0.74, "CDH1-null viability vs mock": 0.37}
{"Gene": "P3H2 (prolyl 3-hydroxylase 2)", "CDH1-null / parental viability ratio": 1.07, "CDH1-null viability vs mock": 0.9}
{"Gene": "SYNC (syncoilin, intermediate filament protein)", "CDH1-null / parental viability ratio": 0.9, "CDH1-null viability vs mock": 0.54}
{"Gene": "GNRHR (gonadotropin releasing hormone receptor)", "CDH1-null / parental viability ratio": 1.16, "CDH1-null viability vs mock": 0.89}
{"Gene": "STRIP2 (striatin interacting protein 2)", "CDH1-null / parental viability ratio": 0.93, "CDH1-null viability vs mock": 0.71}
{"Gene": "ZNF563 (zinc finger protein 563)", "CDH1-null / parental viability ratio": 0.76, "CDH1-null viability vs mock": 0.51}
{"Gene": "COMMD3 (COMM domain containing 3)", "CDH1-null / parental viability ratio": 0.85, "CDH1-null viability vs mock": 0.7}
{"Gene": "NFU1 (NFU1 iron-sulfur cluster scaffold)", "CDH1-null / parental viability ratio": 1.08, "CDH1-null viability vs mock": 0.92}
{"Gene": "FBXO42 (F-box protein 42)", "CDH1-null / parental viability ratio": 0.98, "CDH1-null viability vs mock": 0.65}
{"Gene": "JTB (jumping translocation breakpoint)", "CDH1-null / parental viability ratio": 1.17, "CDH1-null viability vs mock": 0.96}
{"Gene": "CTDSP2 (CTD small phosphatase 2)", "CDH1-null / parental viability ratio": 1.34, "CDH1-null viability vs mock": 0.94}
{"Gene": "RWDD2A (RWD domain containing 2A)", "CDH1-null / parental viability ratio": 1.97, "CDH1-null viability vs mock": 0.63}
{"Gene": "PLAC8L1 (PLAC8 like 1)", "CDH1-null / parental viability ratio": 1.32, "CDH1-null viability vs mock": 0.96}
{"Gene": "CFAP36 (cilia and flagella associated protein 36)", "CDH1-null / parental viability ratio": 1.1, "CDH1-null viability vs mock": 0.57}
{"Gene": "DEFA4 (defensin alpha 4)", "CDH1-null / parental viability ratio": 1.03, "CDH1-null viability vs mock": 0.64}
{"Gene": "CPZ (carboxypeptidase Z)", "CDH1-null / parental viability ratio": 1.15, "CDH1-null viability vs mock": 0.55}
{"Gene": "PCBD2 (pterin-4 alpha-carbinolamine dehydratase 2)", "CDH1-null / parental viability ratio": 1.02, "CDH1-null viability vs mock": 0.94}
{"Gene": "ODAPH (odontogenesis associated phosphoprotein)", "CDH1-null / parental viability ratio": 0.82, "CDH1-null viability vs mock": 0.62}
{"Gene": "CYP2S1 (cytochrome P450 family 2 subfamily S member 1)", "CDH1-null / parental viability ratio": 0.91, "CDH1-null viability vs mock": 0.62}
{"Gene": "TRPV3", "CDH1-null / parental viability ratio": 1.63, "CDH1-null viability vs mock": 0.83}
{"Gene": "NEK6 (NIMA related kinase 6)", "CDH1-null / parental viability ratio": 0.91, "CDH1-null viability vs mock": 0.78}
{"Gene": "OR8U1 (olfactory receptor family 8 subfamily U member 1)", "CDH1-null / parental viability ratio": 1.12, "CDH1-null viability vs mock": 1.01}
{"Gene": "CLUL1 (clusterin like 1)", "CDH1-null / parental viability ratio": 0.93, "CDH1-null viability vs mock": 0.86}
{"Gene": "CEP135 (centrosomal protein 135)", "CDH1-null / parental viability ratio": 1.15, "CDH1-null viability vs mock": 0.86}
{"Gene": "C15orf32 (chromosome 15 putative open reading frame 32)", "CDH1-null / parental viability ratio": 1.14, "CDH1-null viability vs mock": 0.75}
{"Gene": "RBM10 (RNA binding motif protein 10)", "CDH1-null / parental viability ratio": 1.17, "CDH1-null viability vs mock": 0.42}
{"Gene": "RHCG (Rh family C glycoprotein)", "CDH1-null / parental viability ratio": 1.08, "CDH1-null viability vs mock": 0.91}
{"Gene": "ASPN (asporin)", "CDH1-null / parental viability ratio": 0.98, "CDH1-null viability vs mock": 0.86}
{"Gene": "FAM171B (family with sequence similarity 171 member B)", "CDH1-null / parental viability ratio": 1.14, "CDH1-null viability vs mock": 0.97}
{"Gene": "STXBP1 (syntaxin binding protein 1)", "CDH1-null / parental viability ratio": 1.19, "CDH1-null viability vs mock": 0.94}
{"Gene": "EWSR1 (EWS RNA binding protein 1)", "CDH1-null / parental viability ratio": 0.9, "CDH1-null viability vs mock": 0.88}
{"Gene": "GNAI3 (G protein subunit alpha i3)", "CDH1-null / parental viability ratio": 0.96, "CDH1-null viability vs mock": 0.89}
{"Gene": "BUB3 (BUB3 mitotic checkpoint protein)", "CDH1-null / parental viability ratio": 0.78, "CDH1-null viability vs mock": 0.43}
{"Gene": "CCDC186 (coiled-coil domain containing 186)", "CDH1-null / parental viability ratio": 1.04, "CDH1-null viability vs mock": 1.11}

Entries above whose gene name begins with I or i (2):
{"Gene": "INPP1 (inositol polyphosphate-1-phosphatase)", "CDH1-null / parental viability ratio": 1.13, "CDH1-null viability vs mock": 0.88}
{"Gene": "INTS1 (integrator complex subunit 1)", "CDH1-null / parental viability ratio": 1.07, "CDH1-null viability vs mock": 0.48}
